Several values for one entry are separate records, joined by “and”; a condition that tells them apart may be missing. Identical values can stand only once. Some of the results follow. Shown are side measurements of this screen, not its main read-out; they come without a call. Compounds called inactive in the main read-out are mostly missing here. The note in brackets gives the kind of curve behind each potency; many fits are weak.
Assay: qHTS Assay to Find Inhibitors of Chronic Active B-Cell Receptor Signaling
Settings: ABC-DLBCL IkBa-CBG/CBR reporter, luminescence ratio (green luciferase fused to IkBa over red control in TMD8 lymphoma cells), 4 h
Outline: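 Concentration-response series (up to 46 uM) were applied to TMD8 dual-reporter cells for 4 h at 37C with doxycycline. Green/red ratio, after filter-overlap correction, defined %Activity; red signal alone was normalised to basal cells and zero luminescence.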

[1] = measured here: CBR red luminescence, cell number
[2] = measured here: IkBa-CBG green luminescence

Row | Compound | AC50 [1] | AC50 [2]
1 | Cc1c(/C=C/C(=O)c2ccc(O)cc2)cnn1C | 20.6 µM [falling, single point] | 
2 | CN(C)c1ccc(N=Cc2cccn2C)cc1 | 4.47 µM [falling, full curve] | 
3 | COc1cc(NC(=O)c2ccc(CNc3c(N4CCCC4)c(=O)c3=O)cc2)cc(OC)c1OC | 3.98 µM [rising, single point] | 
4 | COc1ccccc1C(=O)Nc1c(C(=O)N(CCN(C)C)Cc2ccco2)oc2ccccc12 | 15.8 µM [falling, single point] | 
5 | O=C1CC(c2ccncc2)c2cc3c(cc2N1)OCO3 (stereo not given) | 29.1 µM [falling, single point] | 
6 | Cc1c(OC(C)C(=O)O)ccc2c(-c3ccccc3)cc(=O)oc12 (stereo not given) | 8.91 µM [rising, partial curve, poor fit] | 
7 | COc1ccnc(CSC(N)=Nc2cccc(C(F)(F)F)c2)c1 | 20.6 µM [falling, partial curve] | 16.4 µM [falling, partial curve, poor fit]
8 | O=C(N/N=C/c1ccc[nH]1)c1ccc(O)cc1 | 3.55 µM [falling, partial curve] | 
9 | CCCNC(=O)N(C)c1nncnc1C(=O)NC | 17.8 µM [rising, partial curve, poor fit] | 
10 | CC(=O)C1=C(C)NC(SCC(=O)c2ccc(Cl)cc2Cl)=C(C#N)C1c1ccco1 (stereo not given) | 35.5 µM [falling, single point] | 
11 | COc1ccc(CC(NC(C)=O)C(=O)NC2CCN(C(=O)c3ccccc3F)CC2)cc1 (stereo not given) | 31.6 µM [rising, single point] | 
12 | c1ccc(Oc2nnc(-c3cccs3)c3ccccc23)cc1 | 14.6 µM [rising, partial curve, poor fit] | 
13 | COC(=O)c1ccc(COC(=O)c2ccc(SC)cc2OC)cc1 | 23.1 µM [falling, single point] | 
14 | CS(=O)(=O)Nc1cccc(S(=O)(=O)N2CCN(C(=O)c3ccccc3)CC2)c1 | 2.51 µM [rising, partial curve, poor fit] | 
15 | CCCN(CCC)C(=O)CSc1nc2ccsc2c(=O)n1NC(=O)c1ccccc1 | 0.316 µM [rising, partial curve, poor fit] | 
16 | Cc1ccc(NC(=O)CN2C(=O)C(C)Oc3ccccc32)nc1 (stereo not given) | 35.5 µM [rising, partial curve, poor fit] | 
17 | Cc1ccc(-c2noc(-c3ccccc3C(=O)N3CCCC3)n2)cc1 | 20 µM [rising, partial curve, poor fit] | 
18 | CCCCc1ncc(CN2CCC(n3nccc3NC(=O)c3ccccc3Cl)CC2)[nH]1 | 3.16 µM [rising, full curve, poor fit] | 
19 | COc1ccccc1-n1c(-c2ccccc2)c[n+]2c1CCc1ccccc1-2 | 17.8 µM [falling, partial curve, poor fit] | 
20 | COc1cc(OC)cc(OCC(O)Cn2ccnc2)c1 (stereo not given) | 0.708 µM [falling, full curve, poor fit] | 
21 | Cc1[nH]c(=O)[nH]c(=O)c1Cc1cccc2ccccc12 | 20 µM [rising, partial curve, poor fit] | 

Row | Compound | AC50 [1] | AC50 [2]
22 | CC(C)Oc1ccccc1C1NC(=O)CCC1[N+](=O)[O-] (stereo not given) | 35.5 µM [falling, single point] | 
23 | CN(CC(=O)Nc1ccc(F)cc1)C(=O)COc1ccccc1Cc1ccccc1 | 20.6 µM [falling, partial curve, poor fit] | 
24 | CCOc1ccc2ccccc2c1/C=N/NC(=O)CNC(=O)c1ccccc1O | 7.08 µM [falling, full curve, poor fit] | 
25 | O=C(O)c1cccc(S(=O)(=O)Nc2ccc([N+](=O)[O-])cc2O)c1 | 35.5 µM [rising, single point] | 
26 | O=C(CCCCCNC(=O)c1ccccc1)N/N=C/c1ccccc1O | 29.1 µM [rising, single point] | 
27 | Cc1ccc(S(=O)(=O)N(CCO)Cc2cc3ccc(C)c(C)c3[nH]c2=O)cc1 | 6.31 µM [rising, full curve] | 
28 | CS(=O)(=O)Nc1ccc(C(=O)NCCc2ccccc2)cc1 | 3.66 µM [rising, single point] | 
29 | CCC1(c2ccc(Cl)cc2)NC(=S)N(c2ccccc2)N1 (stereo not given) | 23.1 µM [falling, single point] | 
30 | COc1ccccc1CNC(=O)CN1C(=O)c2cccc(N)c2C1=O | 20 µM [falling, partial curve, poor fit] | 
31 | CC(C)c1cccc(C(C)C)c1OCCCCN1CCCC1 | 6.51 µM [falling, single point] | 
32 | O=C(c1ccc(Cl)cc1)C1CCCN(Cc2ccc(Oc3ncccn3)cc2)C1 (stereo not given) | 12.6 µM [falling, partial curve, poor fit] | 
33 | CC(C)N(C(=O)[C@H]1C[C@H](CC(=O)NC(C)(C)C)C(=O)N2CCc3c([nH]c4cc(-c5ccco5)ccc34)[C@]12C)C(C)C | 23.1 µM [falling, single point] | 
34 | CC1(C)CC(=O)C=C(NNC(=O)c2ccccc2O)C1 | 7.94 µM [falling, partial curve, poor fit] | 
35 | COc1ccc(OC)c(S(=O)(=O)N2CCC(C(=O)Nc3ccc(C)c(C)c3)CC2)c1 | 0.891 µM [falling, partial curve, poor fit] | 
36 | Cn1c(-c2c(N)n(CCc3ccccc3)c3nc4ccccc4nc23)nc2ccccc21 | 20.6 µM [falling, single point] | 
37 | Fc1ccccc1/C=N/Nc1ccc(Cl)nn1 | 0.794 µM [rising, partial curve, poor fit] | 
38 | CN(CCC1CCOCC1)Cc1nc(Cc2ccccc2F)no1 | 35.5 µM [rising, single point] | 
39 | COc1ccc(/C=C2\OC(=O)c3c(OC)cccc32)cc1OC | 0.794 µM [rising, full curve] | 
40 | CCC(C)(C(=O)NC1CCCCC1)N(Cc1cccs1)C(=O)CC1NC(=O)NC1=O (stereo not given) | 23.1 µM [falling, single point] | 20.6 µM [rising, partial curve, poor fit]
41 | CC(=O)c1ccc(-c2ccc(C(=O)N3CCC(C(N)=O)CC3)o2)cc1 | 14.6 µM [rising, single point] | 
42 | CCOc1ccc(CNn2nnnc2N)cc1 | 7.31 µM [rising, single point] | 

Row | Compound | AC50 [1] | AC50 [2]
43 | Cc1cc(C)n(-c2nc(NCc3cccnc3)c3c4c(sc3n2)COC(C)(C)C4)n1 | 35.5 µM [falling, single point] | 
44 | CCOc1ccc(CCNC(=O)COC(=O)c2ccc(F)c(S(=O)(=O)N3CCOCC3)c2)cc1OCC | 0.103 µM [rising, full curve, poor fit] | 
45 | COc1cc(NC(=O)C2CCCN(c3ncccn3)C2)cc(OC)c1 (stereo not given) | 2.31 µM [falling, partial curve, poor fit] | 
46 | Cc1ccc(NC(=O)CNCc2ccccc2)cc1Br | 31.6 µM [falling, single point] | 
47 | C/C(=N/OCO/N=C(\C)c1ccccc1)c1ccccc1 | 20.6 µM [rising, single point] | 
48 | COC(=O)Cc1[nH]c(=S)[nH]c1C(=O)OC | 2.51 µM [rising, full curve, poor fit] | 
49 | O=c1c2ccccc2nc(SCc2ccccc2)n1Cc1ccco1 | 6.31 µM [falling, partial curve, poor fit] | 
50 | CC1CCN(CCCCOc2ccccc2-c2ccccc2)CC1 | 20.6 µM [falling, single point] | 
51 | COc1ccc(NC(C)=O)cc1NC(C)C(=O)Nc1ccc(F)cc1 (stereo not given) | 29.1 µM [falling, single point] | 
52 | Cc1ccc(Cl)cc1NC(=O)CN1C=NS(=O)(=O)c2ccccc21 | 35.5 µM [falling, single point] | 
53 | COc1cc(OC)c(OC)cc1/C=C1\Oc2cc(OS(C)(=O)=O)ccc2C1=O | 5.62 µM [rising, partial curve, poor fit] | 
54 | Cc1nc(-c2ccc(C(=O)Nc3cc(S(N)(=O)=O)ccc3C)cc2)cs1 | 8.91 µM [falling, partial curve] | 
55 | COc1ccc(C(=O)/C=C/Nc2ccc(S(=O)(=O)Nc3nc(C)cc(C)n3)cc2)cc1OC | 7.31 µM [rising, partial curve, poor fit] | 
56 | COc1ccc(/C=C/C(=O)C23CC4CC(CC(C4)C2)C3)cc1CN1CCOCC1 | 35.5 µM [falling, single point] | 
57 | COc1ccc(COC(=O)c2ccc(Cl)c(S(=O)(=O)N3CCOCC3)c2)cc1F | 0.126 µM [rising, full curve, poor fit] | 
58 | Cc1ccccc1C(=O)Oc1cccc2c(O)cccc12 | 15.8 µM [rising, single point] | 
59 | COc1ccc(NC(=O)CSc2nc(C3CC3)nc3ccccc23)c(OC)c1 | 22.4 µM [falling, single point] | 
60 | O=C(Nc1ccc(Cl)c(S(=O)(=O)N2CCOCC2)c1)c1cc2ccccc2oc1=O | 0.82 µM [falling, partial curve, poor fit] | 
61 | c1ccc(CNc2ncnc3ccccc23)cc1 | 11.2 µM [falling, partial curve, poor fit] and 7.08 µM [falling, full curve, poor fit] | 
62 | O=C(NC(=S)Nc1ccccc1C(=O)O)c1ccc2ccccc2c1 | 7.94 µM [falling, partial curve] | 
63 | N=c1n(Cc2ccccc2)c2ccccc2n1CC(O)COc1ccccc1 (stereo not given) | 11.2 µM [falling, partial curve] | 

From PubChem BioAssay AID493014 (National Center for Advancing Translational Sciences (NCATS), 2011)
